Further values from the same series stand in other lists.
Key:
Assay type in all cases: cell-based
[1] = target: T1, RNA polymerase II (Mus musculus) (UniProt P08775+Q8CFI7+P97760+A0A3Q4L2S8+Q80UW8+P61219+P62488+Q923G2+P60898+O08740+Q63871+P62876); assay: Inhibition of RNA polymerase II in mouse B16-F1 migrating cells assessed as fold change in Nudt12-RNA stability at 0.1 mM measured by ChIP-seq analysis relative to control cells
[2] = target: T1, RNA polymerase II (Mus musculus); assay: Inhibition of RNA polymerase II in mouse B16-F1 migrating cells assessed as fold change in Mbnl1-RNA stability at 0.1 mM measured by ChIP-seq analysis relative to control cells
[3] = target: T1, RNA polymerase II (Mus musculus); assay: Inhibition of RNA polymerase II in mouse B16-F1 migrating cells assessed as fold change in Mrpl20-RNA stability at 0.1 mM measured by ChIP-seq analysis relative to control cells
[4] = target: T1, RNA polymerase II (Mus musculus); assay: Inhibition of RNA polymerase II in mouse B16-F1 migrating cells assessed as fold change in Rtl8a-RNA stability at 0.1 mM measured by ChIP-seq analysis relative to control cells
[5] = target: T1, RNA polymerase II (Mus musculus); assay: Inhibition of RNA polymerase II in mouse B16-F1 migrating cells assessed as fold change in Emc1-RNA stability at 0.1 mM measured by ChIP-seq analysis relative to control cells
[6] = target: T1, RNA polymerase II (Mus musculus); assay: Inhibition of RNA polymerase II in mouse B16-F1 migrating cells assessed as fold change in Rps26-RNA stability at 0.1 mM measured by ChIP-seq analysis relative to control cells
[7] = target: T1, RNA polymerase II (Mus musculus); assay: Inhibition of RNA polymerase II in mouse B16-F1 migrating cells assessed as fold change in Mpp7-RNA stability at 0.1 mM measured by ChIP-seq analysis relative to control cells
[8] = target: T1, RNA polymerase II (Mus musculus); assay: Inhibition of RNA polymerase II in mouse B16-F1 migrating cells assessed as fold change in Syngr1-RNA stability at 0.1 mM measured by ChIP-seq analysis relative to control cells
[9] = target: T1, RNA polymerase II (Mus musculus); assay: Inhibition of RNA polymerase II in mouse B16-F1 migrating cells assessed as fold change in Cst6-RNA stability at 0.1 mM measured by ChIP-seq analysis relative to control cells
[10] = target: T1, RNA polymerase II (Mus musculus); assay: Inhibition of RNA polymerase II in mouse B16-F1 migrating cells assessed as fold change in Secisbp2l-RNA stability at 0.1 mM measured by ChIP-seq analysis relative to control cells
[11] = target: T1, RNA polymerase II (Mus musculus); assay: Inhibition of RNA polymerase II in mouse B16-F1 migrating cells assessed as fold change in Lxn-RNA stability at 0.1 mM measured by ChIP-seq analysis relative to control cells
[12] = target: T1, RNA polymerase II (Mus musculus); assay: Inhibition of RNA polymerase II in mouse B16-F1 migrating cells assessed as fold change in Rnf169-RNA stability at 0.1 mM measured by ChIP-seq analysis relative to control cells
[13] = target: T1, RNA polymerase II (Mus musculus); assay: Inhibition of RNA polymerase II in mouse B16-F1 migrating cells assessed as fold change in Cdk2ap2-RNA stability at 0.1 mM measured by ChIP-seq analysis relative to control cells
[14] = target: T1, RNA polymerase II (Mus musculus); assay: Inhibition of RNA polymerase II in mouse B16-F1 migrating cells assessed as fold change in A830082K12Rik-RNA stability at 0.1 mM measured by ChIP-seq analysis relative to control cells
[15] = target: T1, RNA polymerase II (Mus musculus); assay: Inhibition of RNA polymerase II in mouse B16-F1 migrating cells assessed as fold change in Isg20l2-RNA stability at 0.1 mM measured by ChIP-seq analysis relative to control cells
[16] = target: T1, RNA polymerase II (Mus musculus); assay: Inhibition of RNA polymerase II in mouse B16-F1 migrating cells assessed as fold change in Ube2m-RNA stability at 0.1 mM measured by ChIP-seq analysis relative to control cells
[17] = target: T1, RNA polymerase II (Mus musculus); assay: Inhibition of RNA polymerase II in mouse B16-F1 migrating cells assessed as fold change in Esco2-RNA stability at 0.1 mM measured by ChIP-seq analysis relative to control cells
[18] = target: Histone-lysine N-methyltransferase EZH2 (Mus musculus) (UniProt Q61188); assay: Inhibition of EZH2 in mouse B16-F1 migrating cells assessed as fold change in H3K27me3-buffered regulated Palb2-mRNA expression at 3 uM measured by ChIP-seq analysis relative to control cells
[19] = target: Histone-lysine N-methyltransferase EZH2 (Mus musculus) (UniProt Q61188); assay: Inhibition of EZH2 in mouse B16-F1 migrating cells assessed as fold change in H3K27me3-buffered regulated Rgs7bp-mRNA expression at 3 uM measured by ChIP-seq analysis relative to control cells
[20] = target: Histone-lysine N-methyltransferase EZH2 (Mus musculus) (UniProt Q61188); assay: Inhibition of EZH2 in mouse B16-F1 migrating cells assessed as fold change in H3K27me3-independent regulated Dok5-mRNA expression at 3 uM measured by ChIP-seq analysis relative to control cells
[21] = target: Histone-lysine N-methyltransferase EZH2 (Mus musculus) (UniProt Q61188); assay: Inhibition of EZH2 in mouse B16-F1 migrating cells assessed as fold change in H3K27me3-buffered regulated Fnbp1l-mRNA expression at 3 uM measured by ChIP-seq analysis relative to control cells
[22] = target: Histone-lysine N-methyltransferase EZH2 (Mus musculus) (UniProt Q61188); assay: Inhibition of EZH2 in mouse B16-F1 migrating cells assessed as fold change in H3K27me3-independent regulated H2-T23-mRNA expression at 3 uM measured by ChIP-seq analysis relative to control cells
[23] = target: Histone-lysine N-methyltransferase EZH2 (Mus musculus) (UniProt Q61188); assay: Inhibition of EZH2 in mouse B16-F1 migrating cells assessed as fold change in H3K27me3-independent regulated Arid5a-mRNA expression at 3 uM measured by ChIP-seq analysis relative to control cells
[24] = target: Histone-lysine N-methyltransferase EZH2 (Mus musculus) (UniProt Q61188); assay: Inhibition of EZH2 in mouse B16-F1 migrating cells assessed as fold change in H3K27me3-buffered regulated Nedd4l-mRNA expression at 3 uM measured by ChIP-seq analysis relative to control cells
[25] = target: Histone-lysine N-methyltransferase EZH2 (Mus musculus) (UniProt Q61188); assay: Inhibition of EZH2 in mouse B16-F1 migrating cells assessed as fold change in H3K27me3-independent regulated Lif-mRNA expression at 3 uM measured by ChIP-seq analysis relative to control cells
[26] = target: Histone-lysine N-methyltransferase EZH2 (Mus musculus) (UniProt Q61188); assay: Inhibition of EZH2 in mouse B16-F1 migrating cells assessed as fold change in H3K27me3-buffered regulated Zeb2-mRNA expression at 3 uM measured by ChIP-seq analysis relative to control cells
[27] = target: Histone-lysine N-methyltransferase EZH2 (Mus musculus) (UniProt Q61188); assay: Inhibition of EZH2 in mouse B16-F1 migrating cells assessed as fold change in H3K27me3-buffered regulated Neil3-mRNA expression at 3 uM measured by ChIP-seq analysis relative to control cells
[28] = target: Histone-lysine N-methyltransferase EZH2 (Mus musculus) (UniProt Q61188); assay: Inhibition of EZH2 in mouse B16-F1 migrating cells assessed as fold change in H3K27me3-buffered regulated Thoc2-mRNA expression at 3 uM measured by ChIP-seq analysis relative to control cells
[29] = target: Histone-lysine N-methyltransferase EZH2 (Mus musculus) (UniProt Q61188); assay: Inhibition of EZH2 in mouse B16-F1 migrating cells assessed as fold change in H3K27me3-independent regulated Runx2-mRNA expression at 3 uM measured by ChIP-seq analysis relative to control cells
[30] = target: Histone-lysine N-methyltransferase EZH2 (Mus musculus) (UniProt Q61188); assay: Inhibition of EZH2 in mouse B16-F1 migrating cells assessed as fold change in H3K27me3-independent regulated Gpi1-mRNA expression at 3 uM measured by ChIP-seq analysis relative to control cells

Amino acid sequences for entries named in this document (tags omitted).
UniProt Q61188, whole entry: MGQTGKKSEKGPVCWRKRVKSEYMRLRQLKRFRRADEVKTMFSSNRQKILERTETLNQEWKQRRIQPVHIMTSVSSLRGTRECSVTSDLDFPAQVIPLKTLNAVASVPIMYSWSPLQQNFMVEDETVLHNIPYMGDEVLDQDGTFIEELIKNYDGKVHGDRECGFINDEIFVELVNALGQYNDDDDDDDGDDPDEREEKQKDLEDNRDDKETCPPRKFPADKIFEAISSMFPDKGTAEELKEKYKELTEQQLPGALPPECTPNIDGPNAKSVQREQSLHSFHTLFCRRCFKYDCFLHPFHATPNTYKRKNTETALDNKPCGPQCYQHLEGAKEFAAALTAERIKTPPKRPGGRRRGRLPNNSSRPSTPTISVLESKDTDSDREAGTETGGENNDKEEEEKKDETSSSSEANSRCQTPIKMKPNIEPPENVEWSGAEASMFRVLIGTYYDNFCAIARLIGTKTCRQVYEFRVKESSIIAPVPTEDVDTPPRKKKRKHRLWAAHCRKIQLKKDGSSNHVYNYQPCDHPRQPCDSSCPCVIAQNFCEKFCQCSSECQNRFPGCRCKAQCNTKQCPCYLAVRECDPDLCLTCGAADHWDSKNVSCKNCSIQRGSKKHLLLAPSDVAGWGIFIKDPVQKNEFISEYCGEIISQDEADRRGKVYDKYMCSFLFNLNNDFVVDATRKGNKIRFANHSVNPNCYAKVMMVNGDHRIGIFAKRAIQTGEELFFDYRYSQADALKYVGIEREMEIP

Which results are given for `OC[C@H]1O[C@@H](n2cnc3cc(Cl)c(Cl)cc32)[C@H](O)[C@@H]1O`?
log2FC [1]: -0.66; log2FC [2]: -0.68; log2FC [3]: 0.43; log2FC [4]: 0.63; log2FC [5]: -0.41; log2FC [6]: 0.5; log2FC [7]: -0.69; log2FC [8]: 0.38; log2FC [9]: 0.52; log2FC [10]: -0.62; log2FC [11]: 0.54; log2FC [12]: -0.58; log2FC [13]: 0.52; log2FC [14]: -0.64; log2FC [15]: -0.54; log2FC [16]: 0.42; log2FC [17]: -1.2

`CCCc1cc(C)[nH]c(=O)c1CNC(=O)c1cc(-c2ccnc(N3CCN(C)CC3)c2)cc2c1cnn2C(C)C` was tested. Which log2FC [18] did it give?
The log2FC was -0.51.

What about the log2FC [19] of the same molecule?
Its log2FC is -0.6.

What about the log2FC [20] of the same molecule?
The log2FC was 0.77.

What about the log2FC [21] of the same molecule?
The log2FC was -0.44.

And the log2FC [22]?
The log2FC was 0.65.

And the log2FC [23]?
Its log2FC is 0.42.

What about the log2FC [24] of the same molecule?
The log2FC was 0.39.

What about the log2FC [25] of the same molecule?
The log2FC was 1.15.

What about the log2FC [26] of the same molecule?
The log2FC was -0.43.

And the log2FC [27]?
The log2FC was -0.43.

And the log2FC [28]?
Its log2FC is -0.43.

And the log2FC [29]?
The log2FC was 0.73.

And the log2FC [30]?
The log2FC was 0.55.

Source: ChEMBL document CHEMBL5674883, “The Heterochromatin Landscape in Migrating Cells and the Importance of H3K27me3 for Associated Transcriptome Alterations” (Cells, 2018)
